No constants are given. Whether binding was seen depends on the method and setting. Binding seen in cells or lysates may run through a third protein. Here binding means that the protein was enriched with, or labelled near, the bait; the list need not be complete.
Molecular target: rat DOC2b-GFP (double C2 like domain beta) (rat) (UniProt P70610)
Experiment: affinity purification with mass spectrometry

By UniProt entry, the sequences of proteins in these tests, tags left out.
UniProt P70610: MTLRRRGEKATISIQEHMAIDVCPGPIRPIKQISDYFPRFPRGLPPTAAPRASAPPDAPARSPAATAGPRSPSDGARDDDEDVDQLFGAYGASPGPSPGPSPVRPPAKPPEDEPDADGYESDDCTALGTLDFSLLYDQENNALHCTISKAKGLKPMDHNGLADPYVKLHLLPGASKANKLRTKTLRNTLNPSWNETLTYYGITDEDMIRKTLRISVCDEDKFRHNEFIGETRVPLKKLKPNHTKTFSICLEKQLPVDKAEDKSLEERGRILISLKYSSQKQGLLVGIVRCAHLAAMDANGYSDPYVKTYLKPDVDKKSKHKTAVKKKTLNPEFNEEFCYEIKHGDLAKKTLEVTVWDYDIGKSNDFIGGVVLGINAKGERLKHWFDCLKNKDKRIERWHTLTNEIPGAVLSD

Row | binding | Binder
1 | binds | IKKβ (protein, UniProt Q9QY78 1-757) MSWSPSLPTQTCGAWEMKERLGTGGFGNVIRWHNQVTGEQIAIKQCRQELSPKNRDRWCLEIQIMRRLNHPNVVAARDVPEGMQNLAPNDLPLLAMEYCQGGDLRRYLNQFENCCGLREGAILTLLSDIASALRYLHENRIIHRDLKPENIVLQQGEKRLIHKIIDLGYAKELDQGSLCTSFVGTLQYLAPELLEQQKYTVTVDYWSFGTLAFECITGFRPFLPNWQPVQWHSKVRQKSEVDIVVSEDLNGTVKFSSSSPFPNNLNSVLAERLEKWLQLMLTWQPRQRGVDPQYGPNGCFRALDDILNLKLVHILNMVTGTIHTYPVMEDESLQSLKTRIREDTGILETDQELLQEAGLVLLPDKPATQCISDSKTNEGLTLDMDLVFLFDNSKMSYETQITPRPQPESVSCVLQEPKRNLSFFQMRKVWGQVWHSIQTLKEDCNRLQQGQRAAMMNLLRNNSCLSKMKNAMASTAQQLKAKLDFFKTSIQIDLEKYREQTEFGITSDKLLLAWREMEQAVEQCGRENDVKVLVERMMALQTDIVDLQRSPMGRKQGGTLDDLEEQARELYRRLREKPRDQRTEGDSQDMVRLLLQAIQSFEKKVRVIYSQLSKTVVCKQKALELLPKVEEVVRLMNEDEKTVVRLQEKRQKELWNLLKIACSKVRGPVSGSPDSMNVSRLSHPGHLMSQPSSACDSLPDSDKKSEELVAEAHALCSRLESALQDTVKQQDRSFTTLDWSWLQMEDEERCGLEQACD
2 | binds | STAT-1 (protein, UniProt Q9QXK0 1-749) MSQWFELQQLDSKFLEQVHQLYDDSFPMEIRQYLAQWLEKQDWEHAAYDVSFATIRFHDLLSQLDDQYSRFSLENNFLLQHNIRKSKRNLQDNFQEDPVQMSMIIHNCLKEERKILENAQRFNQAQEGNIQNTVMLDKQKELDSKVRNVKDQVMCIEHEIKTLEDLQDEYDFKCKTSQNRESEANGVAKSDQKQEQLLLHKMFLMLDNKRKEIIHKIRELLNSIELTQNTLINDELVEWKRRQQSACIGGPPNACLDQLQSWFTIVAESLQQVRQQLKKLEELEQKFTYEQDPITKNKQVLSDRTFVLFQQLIQSSFVVERQPCMPTHPQRPLVLKTGVQFTVKLRLLVKLQELNYNLKVKVSFDKDVNEKNTVKGFRKFNILGTHTKVMNMEESTNGSLAAEFRHLQLKEQKNAGNRTNEGPLIVTEELHSLSFETQLCQPGLVIDLETTSLPVVVISNVSQLPSGWASILWYNMLVTEPRNLSFFLNPPCAWWSQLSEVLSWQFSSVTKRGLNADQLSMLGEKLLGPNAGPDGLIPWTRFCKENINDKNFSFWPWIDTILELIKKHLLCLWNDGCIMGFISKERERALLKDQQPGTFLLRFSESSREGAITFTWVERSQNGGEPDFHAVEPYTKKELSAVTFPDIIRNYKVMAAENIPENPLKYLYPNIDKDHAFGKYYSRPKEAPEPMELDDPKRTGYIKTELISVSEVHPSRLQSTENLLPMSPEEFDEMSKIVGSEFDSMMSAV

— article doi:10.1101/2024.12.22.629540
